According to the supplement of paper PMC8166895:
Structures can show the parent of a compound that is named as a salt. The list shows a part of the results. Most entries show no effect beyond the scatter of the controls.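 Differential scanning fluorimetry gave melting temperatures in a one-replicate pilot screen of a library of approved drugs plus clinical or known-target compounds. Hits increasing melting point at least 2 °C were the strongest stabilizers, while negative shifts signify destabilization.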

system: SARS-CoV-2 main protease (Mpro, nsp5); assay: thermal shift ΔTm of Mpro relative to plate average Tm; higher = stronger thermal stabilization of Mpro (binding); settings: 10 µM; protein concentration 1 µM

In order of falling “thermal shift ΔTm of Mpro” value:
1. O=c1cccc2n1CC1CC2CN2CCCCC12 (centres undefined) [Thermopsine]  2.56 °C
2. O=C(Nc1cc(C(F)(F)F)cc(C(F)(F)F)c1)c1cc(Cl)ccc1O  1.11 °C
3. O=C1NC(=O)/C(=C/c2ccc(-c3ccc(F)cc3O)o2)S1  0.642 °C
4. COc1cc2c(cc1O)CC[C@@H]1[C@@H]2CC[C@]2(C)[C@@H](O)CC[C@@H]12 [2-Methoxyestradiol (2-MeOE2)]  0.364 °C
5. COCCCC/C(=N\OCCN)c1ccc(C(F)(F)F)cc1 [Fluvoxamine maleate]  0.353 °C
6. O=C(Nc1cc(Cl)cc(Cl)c1O)c1c(O)c(Cl)cc(Cl)c1Cl [Oxyclozanide]  0.314 °C
7. Cc1cccc(-c2[nH]c(C(C)(C)C)nc2-c2ccc3nccnc3c2)n1  0.309 °C
8. Clc1ccccc1CN1CCc2sccc2C1 [Ticlopidine hydrochloride]  0.302 °C
9. Cc1cc(NC(=O)C2=C(O)c3ccccc3S(=O)(=O)N2C)no1 [Isoxicam]  0.271 °C
10. Oc1cc(-c2nc(-c3ccccc3)[nH]c2-c2ccncc2)ccc1Cl  0.204 °C
11. O=c1[nH]c(=O)n([C@@H]2O[C@H](CO)[C@@H](O)[C@H]2O)cc1F [5-Fluorouridine]  0.201 °C
12. CC(C)Cc1ccc([C@H](C)C(=O)O)cc1 [Dexibuprofen]  0.193 °C
13. C[C@@H](c1ncncc1F)[C@](O)(Cn1cncn1)c1ccc(F)cc1F [Voriconazole]  0.192 °C
14. CCn1c(=O)c(-c2ccc(-c3cncs3)cc2Cl)cc2cnc(Nc3ccc(N4CCN(C)CC4)cc3)nc21  0.187 °C
15. N=c1ccn2c(n1)O[C@H]1[C@H](O)[C@@H](CO)O[C@H]12 [Cyclocytidine HCl]  0.181 °C
16. CC(=O)Oc1c(C)cccc1C(=O)O [2-(Acetyloxy)-3-Methylbenzoic Acid]  0.178 °C
17. O=[N+]([O-])c1ccc([As](=O)(O)O)cc1 [Nitarsone]  0.173 °C
18. O=C(O)CSc1cc(NS(=O)(=O)c2ccc(Br)cc2)c2ccccc2c1O  0.173 °C
19. O=C1C(CC[S+]([O-])c2ccccc2)C(=O)N(c2ccccc2)N1c1ccccc1 (centres undefined) [Sulfinpyrazone]  0.165 °C
20. CNC(=O)c1ccc2cc([C@@]3(O)CCn4cncc43)ccc2c1 [TAK-700 (Orteronel)]  0.165 °C
21. Nc1nccc(-c2c(-c3ccc(F)cc3)ncn2C2CCCCC2)n1  0.161 °C
22. O=c1[nH]cc(F)c(=O)[nH]1 [Fluorouracil (5-Fluoracil, 5-FU)]  0.148 °C
23. COC(=O)[C@H](c1ccccc1Cl)N1CCc2sccc2C1 [Clopidogrel]  0.145 °C
24. O=c1ncn2nc(Sc3ccc(F)cc3F)ccc2c1-c1c(Cl)cccc1Cl  0.14 °C
25. CCC(COC(=O)c1cc(OC)c(OC)c(OC)c1)(c1ccccc1)N(C)C (centres undefined) [Trimebutine]  0.11 °C
26. O=C(O)Cc1ccccc1Nc1c(Cl)cccc1Cl [Diclofenac Diethylamine]  0.093 °C
27. NC(=O)N[C@@H](CCC(=O)O)C(=O)O [Carbaglu]  0.0918 °C
28. O=C(N[C@@H](c1ccccc1)[C@@H](O)C(=O)O)c1ccccc1 [N-Benzoyl-(2R,3S)-3-phenylisoserine]  0.0654 °C
29. C[C@H](N[C@@H](CCc1ccccc1)C(=O)O)C(=O)N1CCC[C@H]1C(=O)O [Enalaprilat Dihydrate]  0.0637 °C
30. C[C@@H](NC(=O)[C@@H](N)Cc1ccc(O)cc1)C(=O)NCC(=O)N(C)[C@@H](Cc1ccccc1)C(=O)NCCO  0.0536 °C
31. CCN(CC)CCNC(=O)c1ccc(NS(C)(=O)=O)cc1 [Sematilide HCl]  0.0513 °C
32. C#C[C@]1(OC(C)=O)CC[C@H]2[C@@H]3CCC4=C[C@@H](OC(C)=O)CC[C@@H]4[C@H]3CC[C@@]21C [Ethynodiol diacetate]  0.0382 °C
33. Clc1ccc(C(OCCN2CCCCC2)c2ccccc2)cc1 (centres undefined) [Cloperastine hydrochloride]  0.0315 °C
34. O=C(O)Cc1ccccc1Nc1c(Cl)cccc1Cl [Diclofenac Sodium]  0.0239 °C
35. O=C1NC(=O)/C(=C\c2ccc3nccnc3c2)S1  0.0186 °C
36. COC(=O)N1CCN(Cc2cccc(NC(=O)Nc3ccc(C)nc3)c2F)CC1  0.0174 °C
37. CS(=O)(=O)c1ccc([C@@H](O)[C@@H](CO)NC(=O)C(Cl)Cl)cc1 [Thiamphenicol]  0.011 °C
38. NC(=O)c1ccc2nc(-c3ccc(Oc4ccc(Cl)cc4)cc3)[nH]c2c1  0.0061 °C
39. CC1(C)C(C=C(Cl)Cl)C1C(=O)OCc1cccc(Oc2ccccc2)c1 (centres undefined) [Permethrin]  0.00591 °C
40. C[C@@H]1CC(=O)NN=C1c1ccc(NN=C(C#N)C#N)cc1 [Levosimendan]  0.00185 °C
41. CC[C@@]1(O)C(=O)OCc2c1cc1n(c2=O)Cc2cc3cc(O)ccc3nc2-1 [(S)-10-Hydroxycamptothecin]  -0.00492 °C
42. O=C(O)Cc1ccccc1Nc1c(Cl)cccc1Cl [Diclofenac]  -0.0153 °C
43. NC(=O)c1cccc2[nH]c(-c3ccc(C4CCCN4)cc3F)nc12 (centres undefined)  -0.0319 °C
44. O=C(O)Cc1ccccc1Nc1c(Cl)cccc1Cl [Diclofenac Potassium]  -0.0343 °C
45. CCC(=O)O[C@H](CC(=O)O)C[N+](C)(C)C [Propionyl-L-carnitine hydrochloride]  -0.035 °C
46. C[C@]12C=CC(=O)C=C1CC[C@@H]1[C@@H]2[C@@H](O)C[C@@]2(C)[C@H]1CC[C@]2(O)C(=O)CO [Prednisolone]  -0.0377 °C
47. C[C@@H]1CC[C@@]2(NC1)O[C@H]1C[C@H]3[C@@H]4CC=C5C[C@@H](O[C@@H]6O[C@H](CO)[C@@H](O[C@@H]7O[C@@H](C)[C@H](O)[C@@H](O)[C@H]7O)[C@H](O)[C@H]6O[C@@H]6O[C@@H](C)[C@H](O)[C@@H](O)[C@H]6O)CC[C@]5(C)[C@H]4CC[C@]3(C)[C@H]1[C@@H]2C [Solamargine]  -0.0416 °C
48. OC[C@@H](O)[C@@H](O)CO [Erythritol]  -0.0458 °C
49. NS(=O)(=O)c1cc2c(cc1Cl)N=C(CSCc1ccccc1)NS2(=O)=O [Benzthiazide]  -0.0618 °C
50. CC(=O)Oc1cc(C(F)(F)F)ccc1C(=O)O [Triflusal]  -0.0648 °C
51. CN(C)CCCN1c2ccccc2CCc2ccc(Cl)cc21 [Clomipramine HCl]  -0.0666 °C
52. NC1(c2ccc(-c3nc4ccn5c(=O)[nH]nc5c4cc3-c3ccccc3)cc2)CCC1  -0.0669 °C
53. CC(C)[C@H](C(=O)Nc1ccc(C(=O)NO)cc1)c1ccccc1  -0.0748 °C
54. C=C(C)[C@@H]1CCC2=CC(=O)C[C@@H](C)[C@]2(C)C1 [Nootkatone]  -0.0808 °C
55. CCOc1cc(NC(C)=O)ccc1C(=O)OC [Ethopabate]  -0.089 °C
56. C/C=C(\C)C(=O)N[C@@H](c1ccccc1)[C@@H](O)C(=O)O[C@H]1C[C@@]2(O)[C@@H](OC(=O)c3ccccc3)[C@@H]3[C@]4(OC(C)=O)CO[C@@H]4C[C@H](O)[C@@]3(C)C(=O)[C@H](OC(C)=O)C(=C1C)C2(C)C [Cephalomannine]  -0.093 °C
57. C(=N\NC1=NCCN1)/c1c2ccccc2c(/C=N/NC2=NCCN2)c2ccccc12 [Bisantrene]  -0.0984 °C
58. CNC(=O)c1ccccc1Oc1nc(Nc2cc(OC)c(OC)c(OC)c2)ncc1Br  -0.101 °C
59. COC(=O)[C@H](c1ccccc1Cl)N1CCc2sccc2C1 (racemic) [(±) Clopidogrel hydrogen sulfate]  -0.13 °C
60. CC(C)NC[C@H](O)COc1ccc(CCOCC2CC2)cc1 [Levobetaxolol HCl]  -0.143 °C
61. CN1C/C=C/CCOc2cccc(c2)-c2ccnc(n2)Nc2cccc(c2)C1 [SB1317 hydrochloride]  -0.157 °C
62. COc1ccc(C[C@H]2NC[C@H](O)[C@H]2OC(C)=O)cc1 [Anisomycin]  -0.158 °C
63. CN1CCN(CCCNc2ncc(Cl)c(-c3cc4c(C(=O)NC5CC5)cccc4s3)n2)CC1  -0.171 °C
64. Cc1cncc(CN2CCC(=C3c4ccc(Cl)cc4CCc4cccnc43)CC2)c1 [Rupatadine Fumarate]  -0.175 °C
65. NC(=O)c1noc([C@H](CCCC2CCCCC2)CC(=O)NO)n1  -0.192 °C
66. CC(C)CCN1c2nc(Nc3cc(F)c(O)c(F)c3)ncc2N(C)C(=O)C1C (centres undefined)  -0.205 °C
67. CC[C@H](C)n1cc(C)c2c(C(=O)NCc3c(C)cc(C)[nH]c3=O)cc(-c3ccc(N4CCNCC4)nc3)cc21  -0.21 °C
68. CN(C)CCCNC(=O)c1ccc(-c2cc(O)c3ncccc3c2)cc1  -0.232 °C
69. CNC1CCC(N(Cc2cccc(-c3ccncc3)c2)C(=O)c2sc3ccccc3c2Cl)CC1 (centres undefined) [SAG hydrochloride]  -0.233 °C
70. Cc1cnc(Nc2ccc(N3CCN(C)CC3)cc2)nc1Nc1cccc(S(=O)(=O)NC(C)(C)C)c1  -0.234 °C
71. CCC(COC(=O)c1cc(OC)c(OC)c(OC)c1)(c1ccccc1)N(C)C (centres undefined) [Trimebutine maleate]  -0.243 °C
72. Cc1c(NC(=O)c2ccc(C(C)(C)C)cc2)cccc1-c1cn(C)c(=O)c(Nc2ccc(C(=O)N3CCOCC3)cc2)n1  -0.245 °C
73. COc1cc(N2CCN(C)CC2)ccc1Nc1nccc(-c2cn(C)c3cnccc23)n1  -0.246 °C
74. O=C(Nc1cccnn1)N1CCC(=Cc2cccc(Oc3ccc(C(F)(F)F)cn3)c2)CC1  -0.32 °C
75. CNC1CCC(N(Cc2cccc(-c3ccncc3)c2)C(=O)c2sc3ccccc3c2Cl)CC1 (centres undefined) [Smoothened Agonist (SAG) HCl]  -0.33 °C
76. Nc1ccc(O)c(C(=O)O)c1 [Mesalamine]  -0.401 °C
77. NCCc1c[nH]c2ccc(O)cc12 [Serotonin HCl]  -0.521 °C
78. NC(=O)N1CCC(CC(=O)N2CCC([C@H]3c4ncc(Br)cc4CCc4cc(Cl)cc(Br)c43)CC2)CC1 [Lonafarnib]  -0.666 °C
79. COc1ccnc(C[S+]([O-])c2nc3cc(-n4cccc4)ccc3[nH]2)c1C (centres undefined) [Ilaprazole sodium]  -0.968 °C
